# Percent effect of library compounds

Amino acid sequences for entries named in this document (tags omitted). Residues count along the entry.
UniProt A4I591, 1-473: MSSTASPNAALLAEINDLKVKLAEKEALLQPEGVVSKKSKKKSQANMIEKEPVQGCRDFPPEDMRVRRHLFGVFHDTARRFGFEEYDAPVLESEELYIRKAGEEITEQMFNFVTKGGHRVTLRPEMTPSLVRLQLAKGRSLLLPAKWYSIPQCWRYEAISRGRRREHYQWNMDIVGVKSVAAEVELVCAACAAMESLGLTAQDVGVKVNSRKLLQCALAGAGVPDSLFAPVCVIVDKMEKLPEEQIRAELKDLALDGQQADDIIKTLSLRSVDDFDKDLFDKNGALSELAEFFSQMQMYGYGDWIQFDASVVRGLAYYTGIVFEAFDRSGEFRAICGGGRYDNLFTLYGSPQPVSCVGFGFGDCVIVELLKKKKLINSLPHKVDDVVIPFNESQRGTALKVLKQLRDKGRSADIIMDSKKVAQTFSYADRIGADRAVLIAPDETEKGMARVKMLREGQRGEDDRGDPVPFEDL
UniProt Q4DA54, 1-478: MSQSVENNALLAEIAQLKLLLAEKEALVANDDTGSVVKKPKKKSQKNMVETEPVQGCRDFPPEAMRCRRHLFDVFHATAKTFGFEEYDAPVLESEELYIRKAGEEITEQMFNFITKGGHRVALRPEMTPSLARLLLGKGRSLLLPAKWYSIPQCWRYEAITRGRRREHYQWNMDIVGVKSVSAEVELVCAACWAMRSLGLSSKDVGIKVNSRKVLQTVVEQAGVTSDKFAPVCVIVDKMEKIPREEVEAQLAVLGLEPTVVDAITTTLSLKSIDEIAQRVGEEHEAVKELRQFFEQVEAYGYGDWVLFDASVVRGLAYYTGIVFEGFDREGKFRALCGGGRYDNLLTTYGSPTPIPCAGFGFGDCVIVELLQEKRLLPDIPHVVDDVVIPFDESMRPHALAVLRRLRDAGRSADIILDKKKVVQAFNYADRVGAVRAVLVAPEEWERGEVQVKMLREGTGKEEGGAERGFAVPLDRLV
UniProt P9WPC5, whole entry: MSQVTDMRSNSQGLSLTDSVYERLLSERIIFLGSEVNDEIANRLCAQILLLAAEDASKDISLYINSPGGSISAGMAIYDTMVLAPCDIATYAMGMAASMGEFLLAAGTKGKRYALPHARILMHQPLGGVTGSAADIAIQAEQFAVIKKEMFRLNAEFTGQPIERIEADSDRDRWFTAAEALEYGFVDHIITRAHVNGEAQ
UniProt P9WPC3, whole entry partner: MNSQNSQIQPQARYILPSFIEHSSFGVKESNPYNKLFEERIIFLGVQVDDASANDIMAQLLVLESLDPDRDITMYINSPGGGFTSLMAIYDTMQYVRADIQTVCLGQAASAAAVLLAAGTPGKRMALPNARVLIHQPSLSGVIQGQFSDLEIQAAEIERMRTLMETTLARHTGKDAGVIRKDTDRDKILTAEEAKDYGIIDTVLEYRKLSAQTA

From ChEMBL document CHEMBL3988442, “University of Dundee, Small-Polar-MMV Screening Library” (2021).

A: 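Histidine-tRNA ligase, Leishmania infantum (UniProt A4I591). Enzyme assay of histidyl-tRNA synthetase; the read-out is not stated. Concentration: 30 µM. Higher reads as stronger inhibition (inferred: compounds with an IC50 in retests scored well above the rest). The assay is labelled LdHisRS but filed under L. infantum. Of about 69,000 compounds tested this way, about 410 (0.6%) reached 50% or more in at least one test.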
B: 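Enzyme assay of histidyl-tRNA synthetase; the read-out is not stated. Target: Histidine-tRNA ligase, Trypanosoma cruzi CL Brener (UniProt Q4DA54). Compounds at 30 µM. Direction is inferred from retests: higher values go with stronger inhibition. About 69,000 compounds were tested under these conditions; 0.045% (about 31) showed 50% or more at least once.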
C: 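ClpP1P2, Mycobacterium tuberculosis (UniProt P9WPC5 and UniProt P9WPC3). Protease assay of ClpP1P2, read by the AMC dye that it sets free. Tested at 50 µM. Direction is inferred from only a few compounds that gave an IC50; most scored high, so higher reads as stronger inhibition. Most other retested compounds had strongly negative values. About 69,000 compounds were tested under these conditions; 0.015% (about 10) showed 50% or more at least once.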

Results are given as percent effect.
How 0% and 100% were set is not recorded. Most values in the screen are low, and negative values occur.
Compounds were drawn at random from those tested, without regard to their results.

| structure | A | B | C |
|---|---|---|---|
| `CC(NS(=O)(=O)CCc1ccccn1)c1ccccc1Br` (centres undefined) | 16.81% | 2.212% | 15.08% |
| `CN(CCO)C[C@@H]1CN(C2CCN(c3ccccc3Cl)CC2)C[C@@H]1CO` | 9.639% | 16.02% | -16.72% |
| `O=C(CN1CCCNC1=O)Nc1ccccc1C(=O)C1CCCC1` | 10.96% | 2.105% | -3.953% |
| `COCC(=O)N1CC[C@@H](N2CCOCC2)[C@@H]1Cc1ccccc1` | 11.76% | 3.825% | 9.622% |
| `O=C(NCCc1cccc(F)c1)NCC(O)c1cccc(F)c1` (centres undefined) | 38.1% | 0.7519% | 2.039% |
| `CCn1ncnc1C(C)NC(=O)CC1CCN(C(C)C)CC1` (centres undefined) | 25% | -5.435% | 0.1715% |
| `CO[C@@H]1CO[C@@]2(CCCN(C(=O)C3CC=CC3)C2)C1` | 15.45% | 6.349% | 3.255% |
| `CN1CCc2nc(N(C)C)nc(N3CCC(O)CC3)c2C1` | 8.197% | 5.814% | -0.5521% |
| `O=C(COCc1ccccc1Cl)N1CCN(c2ccc(Br)cn2)CC1` | 20.72% | 6.667% | 5.901% |
| `CCN1CCCCC1C(=O)N1CCC(OC2CCCC2)CC1` (centres undefined) | 10.87% | 2.97% | -3.909% |
| `N#Cc1ccc(CN2C[C@@H]3OCC(=O)N(CC(N)=O)[C@@H]3C2)cc1` | 32.43% | 2.488% | -5.391% |
| `CC(C)[C@H](NC(=O)NC1CCS(=O)(=O)C1)C(=O)Nc1cccnc1` (some centres undefined) | 11.65% | 4.918% | 14.41% |
| `COc1ccc(F)cc1C[S+]([O-])CC(=O)NCc1ccccc1C` (centres undefined) | 6.349% | 2.02% | 6.031% |
| `O=C(NCC1(C(=O)O)CCC1)c1nnn(-c2ccc(F)cc2)c1C1CC1` | -8.036% | 5.172% | -6.884% |
| `CC(C)(C)C(NCC(=O)N1CCNC(=O)C1)c1ccccc1` (centres undefined) | 14.81% | 4.294% | -4.556% |
| `CN(CC(=O)Nc1ccon1)S(=O)(=O)c1cc(Cl)ccc1Cl` | -8.197% | 2.146% | -5.782% |
| `CCn1ccnc1CN1CCN(C(C)C(=O)NCC(F)(F)F)CC1` (centres undefined) | 15.62% | 0.5525% | 5.563% |
| `N#Cc1ccccc1CN(CC(N)=O)C1CCCC1` | 14.04% | 7.563% | 4.934% |
| `CCC(C)(CNC(=O)c1ccon1)NC(=O)c1ccon1` (centres undefined) | 3.125% | 0.5525% | -0.3929% |
| `CC(=O)c1c(C)nn(S(=O)(=O)c2ccccc2)c1C` | 7.143% | 7.018% | 18.44% |
| `Cc1cc(CN(C)C(=O)Nc2cnc3c(c2)c(C)nn3C)no1` | 6.806% | 0.5348% | 7.65% |
| `N#Cc1ccc(CNCC(C(=O)N2CCOCC2)c2ccccc2)cc1` (centres undefined) | 21.7% | 2.51% | -14.46% |
| `O=C(Nc1c(N2CCCC2)cccc1N1CCCC1)c1cnsn1` | 15.38% | -1.149% | 2.089% |
| `CCOCCN1CCN(Cc2nc(C3CC3)no2)CC1CC` (centres undefined) | 11.54% | -0.8264% | -10.44% |
| `CN1CCOC(CNCc2coc(-c3ccccc3)n2)C1` (centres undefined) | -10.11% | 3.008% | 1.316% |
| `CC1CN(C)CCN1C(=O)c1cccn1Cc1cccs1` (centres undefined) | 13.33% | 9.091% | -5.999% |
| `CC(C)COC(C)C(=O)NCc1ccc(OC(C)C)nc1` (centres undefined) | 18.67% | 0.3774% | 14.66% |
| `O=C(N[C@@H]1CN[C@@H]2CCCO[C@@H]21)c1cscn1` | 9.677% | 3.509% | -14.43% |
| `CC(NC(=O)NCCCN(C)C)c1ccc2c(c1)CCC(=O)N2` (centres undefined) | 24.66% | 0% | 9.837% |
| `COc1ccc(C2CCCN2C(=O)NCCNc2ccccn2)cc1` (centres undefined) | 25.3% | 1.22% | -0.4752% |
| `Cc1ccc(CN(CC(=O)N2CCOC(C)C2)C2CC2)cc1` (centres undefined) | 18.58% | 6.122% | -56.24% |
| `Cc1cnn(CCC(=O)N2CCN(c3nccs3)CC2)c1` | 3.39% | 3.429% | -7.963% |
| `CCn1ccnc1C1CCN(Cc2c(F)cccc2F)CC1` | 8.791% | 7.831% | -6.467% |
| `Cn1cc(CN2CCC3(CC2)C(=O)Nc2ccccc23)cn1` | 12.28% | 5.376% | 3.239% |
| `CCOCCC(=O)Nc1cccc(Cl)c1C(N)=O` | 4% | 5.82% | 5.077% |
| `CS(=O)(=O)NCc1nnc2n1CCN(Cc1cccs1)CC2` | -66% | 13.73% | -6.226% |
| `Cc1ccc(-c2c(C(=O)NC3CCN(C)CC3)csc2C)cc1` | 9.211% | 3.261% | -4.678% |
| `CN(C)C(C(=O)N1CCN(CCn2cccc2)CC1)c1ccc(F)cc1` (centres undefined) | 15.5% | 15.48% | 2.088% |
| `Cc1noc(C)c1C(=O)NCCN1CCOCC1` | 16.44% | 4.865% | 2.026% |
| `CC(=O)Nc1ccc(-c2cn(CCn3c(C)cc(C)nc3=O)nn2)cc1` | 14.88% | 2.521% | -13.25% |
| `N#CCc1cccc(C(=O)N2CCN(CC(O)c3ccccc3)CC2)c1` (centres undefined) | 10.71% | 5.764% | -22.04% |
| `Cc1ccc(C(CNC(=O)Cc2nc3ncccn3n2)N(C)C)cc1` (centres undefined) | 10.53% | 14.29% | 5.033% |
| `O=C(NCCc1nncn1C1CC1)C1SCCc2ccccc21` (centres undefined) | 15% | -1.961% | 3.301% |
| `Cc1nn(C)c(N(C)C)c1CNCCCN(C(C)C)S(C)(=O)=O` | 13.89% | 2.053% | -4.107% |
| `Cc1noc(C)c1-c1nc(C2CCCN(C(=O)C(C)C)C2)ccc1CO` (centres undefined) | 9.396% | 3.714% | -9.455% |
| `Fc1ccccc1CNc1ccnc(C2CCNCC2)c1` | 2.817% | 0% | 18.06% |
| `O=C(N1CCC2(CC1)[C@H](O)C[C@@H]2O)C1(c2ccccc2F)CC1` | -6.557% | 5.6% | -13.59% |
| `CCS(=O)(=O)N1Cc2cncn2CC(C(=O)NCC2CC2)C1` (centres undefined) | 1.98% | 2.513% | 7.148% |
| `CC(C)c1nccn1CCCNC(=O)c1ccc(-c2cn[nH]c2)nc1` | 3.03% | 7.609% | -4.352% |
| `c1cc(-c2cn[nH]c2)ccc1CN1CCCCC1` | 4.918% | 7.296% | -10.09% |
| `CN(CC(=O)Nc1ccncc1)C1CCCN(c2cccnn2)C1` (centres undefined) | 13.39% | 6.936% | -21.51% |
| `CCc1cc(C(=O)N[C@@H]2CC[C@@H](N3CCOCC3)[C@@H]2O)no1` | 15.6% | 8.527% | -3.902% |
| `NC(=O)c1cc2c(nc1N)CCN(C(=O)C1CCCCC1)C2` | -29.66% | 4.563% | -46.13% |
| `CN(C)C(=O)N1C[C@@H]2COC[C@]2(CNS(C)(=O)=O)C1` | 4.511% | 3.867% | -1.579% |
| `CCOCC1CN(S(C)(=O)=O)Cc2ncn(CC3CC3)c21` (centres undefined) | 22.64% | 3.39% | 10.58% |
| `CN(CCCc1cnn(C)c1)Cc1cc2n(n1)CCNC2` | 12.94% | 4.02% | 0.8157% |
| `CCNC(=O)N1CC2=CC(C)(C)COc3ccc(OC)c(c32)C1` | 14.29% | 8.989% | -2.034% |

Once more, the final 3:

structure,A,B,C
CCOCC1CN(S(C)(=O)=O)Cc2ncn(CC3CC3)c21 (centres undefined),22.64%,3.39%,10.58%
CN(CCCc1cnn(C)c1)Cc1cc2n(n1)CCNC2,12.94%,4.02%,0.8157%
CCNC(=O)N1CC2=CC(C)(C)COc3ccc(OC)c(c32)C1,14.29%,8.989%,-2.034%